Measured values reported in patent publication US20120289492A1, “METHODS OF TREATING MITOCHONDRIAL DISORDERS USING METALLOPORPHYRINS” (priority 2009, published 2012).
At least one structure is not confirmed: it was looked up by name or label, or the drawing left a doubt.

What was measured:
[1] = tested on: kainate-induced epileptogenesis in rats; assay: Kainate-induced chronic epilepsy development (rat model of temporal lobe epilepsy); format: in vivo; conditions: kainate + 5 mg/kg s.c. daily beginning 6 hr after kainate, 6 weeks; kainate alone 4/6 (66.7%)
Procedure: The rat model of temporal lobe epilepsy is initiated by a single injection of a chemoconvulasant agent which results in spontaneous epileptic seizure arise several days to weeks thereafter. Groups of rats administered vehicle, kainate (a chemoconvulsant used to initiate injury), kainate+AEOL11207 and AEOL11207 were monitored 6 weeks for behavioral seizures and indices of oxidative stress (GSH/GSSG, CoASH/CoASSG). AEOL11207 was administered at an arbitrary dose of 5 mg/kg, s.c. daily beginning 6 hr after injection of kainate (11 mg/kg). All of the rats in both groups experienced SE after kainate injection, and there was no difference in any of the characteristics of SE between the groups. […] The time to develop chronic epilepsy (latency to chronic epilepsy), spontaneous seizure frequency, severity and duration was determined.
In another exemplary experiment, pharmacological removal of ROS was examined for its inhibition on kainate-induced epileptogenesis. A pilot was performed in which groups of rats administered vehicle (n=4), kainate (n=6), kainate+AEOL11207(n=6) and AEOL11207 (n=4) were monitored 6 weeks for behavioral seizures (Table 1) and indices of oxidative stress (GSH/GSSG, CoASH/CoASSG) (FIG. 6).
AEOL11207 was administered at a dose of 5 mg/kg, s.c. daily beginning 6 hr after injection of kainate (1 mg/kg). […]

[2] = tested on: mitochondrial SOD activity; assay: SOD2 activity assay in forebrain mitochondrial fractions; format: in vivo; conditions: forebrain mitochondrial fractions of 15-16 day-old treated Sod2−/− mice, mean±S.E.M, n=6

COC(=O)c1c2nc(c(C(F)(F)F)c3ccc([n-]3)c(C(=O)OC)c3nc(c(C(F)(F)F)c4ccc1[n-]4)C=C3)C=C2.[Cl-].[Mn+3] [AEOL11207]
# Rats with spontaneous seizures [1]: 2/6 (33.3%) | Cyanide insensitive SOD activity [2]: 0.62±.0.07 units/mg protein
